Results are given in words; binding and its absence hold for the method and conditions named. In cells and extracts the contact can be indirect. Some entries that bind do so weakly or less than the wild type.
Molecular target: CHD1^WT-Venus (chromodomain helicase DNA-binding 1, wild type) (human) (UniProt O14646)
Experiment: proximity ligation; Duolink PLA in fixed, permeabilised CHD1KO mCAT HeLa cells with exogenous CHD1-Venus; anti-GFP and anti-SUZ12 primary antibodies; nuclear signals counted in 30 cells, two independent experiments

The chains behind the UniProt entries cited, without tags or fusion partners.
UniProt O14646: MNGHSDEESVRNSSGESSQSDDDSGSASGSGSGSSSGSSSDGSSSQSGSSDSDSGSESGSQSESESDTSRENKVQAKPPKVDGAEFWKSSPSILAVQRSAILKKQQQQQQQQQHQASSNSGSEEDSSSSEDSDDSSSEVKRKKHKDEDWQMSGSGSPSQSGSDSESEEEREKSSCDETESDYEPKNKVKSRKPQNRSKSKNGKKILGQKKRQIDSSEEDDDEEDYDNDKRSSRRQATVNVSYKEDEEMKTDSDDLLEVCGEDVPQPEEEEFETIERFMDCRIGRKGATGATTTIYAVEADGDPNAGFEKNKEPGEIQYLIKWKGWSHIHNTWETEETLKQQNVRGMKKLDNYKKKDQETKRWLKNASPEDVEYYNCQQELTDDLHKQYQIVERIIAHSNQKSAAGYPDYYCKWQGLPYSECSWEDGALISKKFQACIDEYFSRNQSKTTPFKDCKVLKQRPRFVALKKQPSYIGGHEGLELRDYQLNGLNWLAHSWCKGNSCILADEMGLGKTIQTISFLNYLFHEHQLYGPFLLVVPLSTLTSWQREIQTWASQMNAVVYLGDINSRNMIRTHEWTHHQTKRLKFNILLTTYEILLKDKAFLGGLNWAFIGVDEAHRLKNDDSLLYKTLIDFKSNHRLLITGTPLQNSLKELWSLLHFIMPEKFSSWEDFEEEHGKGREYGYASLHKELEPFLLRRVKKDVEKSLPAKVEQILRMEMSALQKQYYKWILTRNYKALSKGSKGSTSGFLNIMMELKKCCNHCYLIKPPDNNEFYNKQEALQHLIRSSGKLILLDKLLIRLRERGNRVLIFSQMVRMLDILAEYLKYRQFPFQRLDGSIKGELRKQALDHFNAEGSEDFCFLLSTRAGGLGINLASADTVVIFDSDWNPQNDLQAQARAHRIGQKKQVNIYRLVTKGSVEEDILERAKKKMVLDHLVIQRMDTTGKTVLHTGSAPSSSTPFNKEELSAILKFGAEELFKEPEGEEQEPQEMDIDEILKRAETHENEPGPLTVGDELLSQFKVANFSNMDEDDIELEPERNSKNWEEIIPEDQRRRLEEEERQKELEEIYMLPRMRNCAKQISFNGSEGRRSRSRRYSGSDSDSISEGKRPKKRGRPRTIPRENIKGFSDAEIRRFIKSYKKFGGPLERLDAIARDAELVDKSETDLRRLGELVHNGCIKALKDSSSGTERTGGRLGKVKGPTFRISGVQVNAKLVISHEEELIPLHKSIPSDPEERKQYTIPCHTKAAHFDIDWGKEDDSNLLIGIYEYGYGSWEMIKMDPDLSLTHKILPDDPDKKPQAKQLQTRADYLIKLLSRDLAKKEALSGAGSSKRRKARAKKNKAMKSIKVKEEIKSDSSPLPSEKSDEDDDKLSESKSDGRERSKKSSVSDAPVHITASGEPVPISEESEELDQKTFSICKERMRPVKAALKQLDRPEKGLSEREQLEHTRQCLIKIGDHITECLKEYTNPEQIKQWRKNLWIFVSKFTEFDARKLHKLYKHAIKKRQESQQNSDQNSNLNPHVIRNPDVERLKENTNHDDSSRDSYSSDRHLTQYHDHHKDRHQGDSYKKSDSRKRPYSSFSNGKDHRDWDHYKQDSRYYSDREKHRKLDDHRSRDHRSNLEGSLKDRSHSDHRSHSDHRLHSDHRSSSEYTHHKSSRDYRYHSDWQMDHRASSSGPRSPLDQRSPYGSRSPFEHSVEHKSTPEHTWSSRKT
UniProt Q15022: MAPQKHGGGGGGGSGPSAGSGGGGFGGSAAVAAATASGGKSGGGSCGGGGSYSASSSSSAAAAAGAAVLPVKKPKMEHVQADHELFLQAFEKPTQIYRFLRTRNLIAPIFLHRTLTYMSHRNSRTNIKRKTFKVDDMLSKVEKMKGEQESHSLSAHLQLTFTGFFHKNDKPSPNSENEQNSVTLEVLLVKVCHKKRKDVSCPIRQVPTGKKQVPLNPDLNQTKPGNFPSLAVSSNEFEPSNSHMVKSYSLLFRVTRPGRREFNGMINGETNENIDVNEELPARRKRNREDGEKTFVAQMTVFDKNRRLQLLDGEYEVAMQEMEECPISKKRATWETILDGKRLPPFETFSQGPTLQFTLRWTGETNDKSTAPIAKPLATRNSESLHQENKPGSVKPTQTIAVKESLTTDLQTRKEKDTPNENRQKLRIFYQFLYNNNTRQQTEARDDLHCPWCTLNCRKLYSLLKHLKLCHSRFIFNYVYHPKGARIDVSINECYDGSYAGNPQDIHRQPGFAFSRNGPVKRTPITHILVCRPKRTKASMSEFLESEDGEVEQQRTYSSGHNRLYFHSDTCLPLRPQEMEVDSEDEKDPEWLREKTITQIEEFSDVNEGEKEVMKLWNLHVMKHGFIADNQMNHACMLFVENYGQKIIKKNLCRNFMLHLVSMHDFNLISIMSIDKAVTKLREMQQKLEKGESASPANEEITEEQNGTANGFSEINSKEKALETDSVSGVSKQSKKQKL

binding: binds
Substance: SUZ12 (from UniProt Q15022 1-739)

— article PMC12575849
